The values below come from publication PMC7044329.

Protein sequences, listed by entry. Tags and fused reporters are not part of them.
UniProt Q9Y2F5: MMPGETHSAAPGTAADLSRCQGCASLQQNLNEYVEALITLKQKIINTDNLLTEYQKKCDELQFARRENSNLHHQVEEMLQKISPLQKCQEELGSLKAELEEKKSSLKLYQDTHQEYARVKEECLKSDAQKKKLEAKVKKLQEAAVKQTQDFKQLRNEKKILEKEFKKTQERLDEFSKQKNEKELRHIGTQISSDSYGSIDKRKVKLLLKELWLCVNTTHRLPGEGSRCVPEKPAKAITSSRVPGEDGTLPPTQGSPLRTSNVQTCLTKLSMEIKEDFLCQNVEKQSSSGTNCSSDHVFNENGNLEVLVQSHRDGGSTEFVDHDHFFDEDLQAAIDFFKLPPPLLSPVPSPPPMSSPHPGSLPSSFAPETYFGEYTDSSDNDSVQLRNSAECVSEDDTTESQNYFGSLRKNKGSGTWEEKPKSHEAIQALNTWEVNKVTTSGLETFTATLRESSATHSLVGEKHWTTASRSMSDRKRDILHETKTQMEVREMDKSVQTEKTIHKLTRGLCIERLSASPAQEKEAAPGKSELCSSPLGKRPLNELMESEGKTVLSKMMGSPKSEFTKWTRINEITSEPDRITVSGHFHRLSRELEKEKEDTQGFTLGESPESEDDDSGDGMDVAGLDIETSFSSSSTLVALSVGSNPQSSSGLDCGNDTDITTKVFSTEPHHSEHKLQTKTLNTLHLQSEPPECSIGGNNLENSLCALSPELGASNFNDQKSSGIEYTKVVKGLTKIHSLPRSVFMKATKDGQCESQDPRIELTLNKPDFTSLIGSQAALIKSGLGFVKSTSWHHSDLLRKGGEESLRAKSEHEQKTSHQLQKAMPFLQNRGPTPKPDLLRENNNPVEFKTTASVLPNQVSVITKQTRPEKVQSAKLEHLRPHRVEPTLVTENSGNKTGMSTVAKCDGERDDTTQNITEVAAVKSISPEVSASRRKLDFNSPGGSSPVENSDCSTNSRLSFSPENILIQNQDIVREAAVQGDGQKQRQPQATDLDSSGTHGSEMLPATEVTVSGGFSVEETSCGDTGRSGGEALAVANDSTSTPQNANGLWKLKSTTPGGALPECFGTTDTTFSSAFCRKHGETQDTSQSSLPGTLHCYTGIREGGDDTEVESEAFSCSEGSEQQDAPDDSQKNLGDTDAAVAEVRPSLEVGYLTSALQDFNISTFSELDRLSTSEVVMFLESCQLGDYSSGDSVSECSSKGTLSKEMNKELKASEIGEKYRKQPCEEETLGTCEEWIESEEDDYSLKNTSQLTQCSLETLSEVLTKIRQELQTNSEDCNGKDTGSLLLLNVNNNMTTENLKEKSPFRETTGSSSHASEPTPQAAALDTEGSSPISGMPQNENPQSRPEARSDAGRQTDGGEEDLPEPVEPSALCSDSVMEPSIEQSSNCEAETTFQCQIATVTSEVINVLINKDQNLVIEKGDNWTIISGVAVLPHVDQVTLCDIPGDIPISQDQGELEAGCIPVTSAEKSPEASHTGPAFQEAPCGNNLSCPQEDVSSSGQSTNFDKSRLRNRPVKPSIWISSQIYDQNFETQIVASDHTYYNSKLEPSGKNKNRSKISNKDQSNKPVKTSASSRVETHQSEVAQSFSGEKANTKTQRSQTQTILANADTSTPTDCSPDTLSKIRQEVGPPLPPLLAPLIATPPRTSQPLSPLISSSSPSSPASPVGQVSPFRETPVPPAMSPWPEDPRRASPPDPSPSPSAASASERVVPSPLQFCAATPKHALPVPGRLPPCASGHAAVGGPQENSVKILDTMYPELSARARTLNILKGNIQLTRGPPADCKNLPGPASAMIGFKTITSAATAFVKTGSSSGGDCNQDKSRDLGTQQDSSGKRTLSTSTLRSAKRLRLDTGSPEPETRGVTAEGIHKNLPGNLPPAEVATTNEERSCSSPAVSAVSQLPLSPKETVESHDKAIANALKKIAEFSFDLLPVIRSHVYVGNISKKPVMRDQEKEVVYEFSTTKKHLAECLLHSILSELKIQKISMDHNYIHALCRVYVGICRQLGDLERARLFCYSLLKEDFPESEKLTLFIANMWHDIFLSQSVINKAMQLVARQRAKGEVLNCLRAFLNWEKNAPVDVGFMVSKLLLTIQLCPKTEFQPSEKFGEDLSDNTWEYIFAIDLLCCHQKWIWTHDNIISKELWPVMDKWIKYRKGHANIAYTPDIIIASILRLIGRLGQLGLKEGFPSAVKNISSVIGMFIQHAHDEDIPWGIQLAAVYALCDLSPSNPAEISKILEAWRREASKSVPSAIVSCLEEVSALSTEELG
UniProt Q9UL03: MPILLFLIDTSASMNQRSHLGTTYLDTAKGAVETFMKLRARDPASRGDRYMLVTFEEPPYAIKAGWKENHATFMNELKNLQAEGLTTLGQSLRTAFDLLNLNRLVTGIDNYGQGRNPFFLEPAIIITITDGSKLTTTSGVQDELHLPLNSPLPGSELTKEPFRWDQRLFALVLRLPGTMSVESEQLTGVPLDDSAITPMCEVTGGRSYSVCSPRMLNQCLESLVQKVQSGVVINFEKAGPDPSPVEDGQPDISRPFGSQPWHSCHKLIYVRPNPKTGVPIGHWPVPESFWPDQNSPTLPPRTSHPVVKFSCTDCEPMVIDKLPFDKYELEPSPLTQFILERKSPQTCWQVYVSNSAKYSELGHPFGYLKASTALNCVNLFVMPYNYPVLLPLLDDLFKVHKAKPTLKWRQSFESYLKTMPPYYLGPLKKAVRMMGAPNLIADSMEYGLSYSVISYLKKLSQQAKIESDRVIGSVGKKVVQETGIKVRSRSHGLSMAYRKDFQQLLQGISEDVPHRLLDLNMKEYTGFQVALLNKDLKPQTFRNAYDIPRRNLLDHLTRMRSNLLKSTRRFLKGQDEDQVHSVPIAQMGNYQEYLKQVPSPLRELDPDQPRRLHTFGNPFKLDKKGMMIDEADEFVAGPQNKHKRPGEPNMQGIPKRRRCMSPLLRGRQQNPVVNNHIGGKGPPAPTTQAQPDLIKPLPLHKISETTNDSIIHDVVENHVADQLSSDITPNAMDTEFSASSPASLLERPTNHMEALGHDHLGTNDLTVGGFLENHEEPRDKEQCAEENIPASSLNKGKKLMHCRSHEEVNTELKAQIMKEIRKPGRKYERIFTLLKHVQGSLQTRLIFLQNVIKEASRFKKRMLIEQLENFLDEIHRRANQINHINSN
UniProt Q9UKL3: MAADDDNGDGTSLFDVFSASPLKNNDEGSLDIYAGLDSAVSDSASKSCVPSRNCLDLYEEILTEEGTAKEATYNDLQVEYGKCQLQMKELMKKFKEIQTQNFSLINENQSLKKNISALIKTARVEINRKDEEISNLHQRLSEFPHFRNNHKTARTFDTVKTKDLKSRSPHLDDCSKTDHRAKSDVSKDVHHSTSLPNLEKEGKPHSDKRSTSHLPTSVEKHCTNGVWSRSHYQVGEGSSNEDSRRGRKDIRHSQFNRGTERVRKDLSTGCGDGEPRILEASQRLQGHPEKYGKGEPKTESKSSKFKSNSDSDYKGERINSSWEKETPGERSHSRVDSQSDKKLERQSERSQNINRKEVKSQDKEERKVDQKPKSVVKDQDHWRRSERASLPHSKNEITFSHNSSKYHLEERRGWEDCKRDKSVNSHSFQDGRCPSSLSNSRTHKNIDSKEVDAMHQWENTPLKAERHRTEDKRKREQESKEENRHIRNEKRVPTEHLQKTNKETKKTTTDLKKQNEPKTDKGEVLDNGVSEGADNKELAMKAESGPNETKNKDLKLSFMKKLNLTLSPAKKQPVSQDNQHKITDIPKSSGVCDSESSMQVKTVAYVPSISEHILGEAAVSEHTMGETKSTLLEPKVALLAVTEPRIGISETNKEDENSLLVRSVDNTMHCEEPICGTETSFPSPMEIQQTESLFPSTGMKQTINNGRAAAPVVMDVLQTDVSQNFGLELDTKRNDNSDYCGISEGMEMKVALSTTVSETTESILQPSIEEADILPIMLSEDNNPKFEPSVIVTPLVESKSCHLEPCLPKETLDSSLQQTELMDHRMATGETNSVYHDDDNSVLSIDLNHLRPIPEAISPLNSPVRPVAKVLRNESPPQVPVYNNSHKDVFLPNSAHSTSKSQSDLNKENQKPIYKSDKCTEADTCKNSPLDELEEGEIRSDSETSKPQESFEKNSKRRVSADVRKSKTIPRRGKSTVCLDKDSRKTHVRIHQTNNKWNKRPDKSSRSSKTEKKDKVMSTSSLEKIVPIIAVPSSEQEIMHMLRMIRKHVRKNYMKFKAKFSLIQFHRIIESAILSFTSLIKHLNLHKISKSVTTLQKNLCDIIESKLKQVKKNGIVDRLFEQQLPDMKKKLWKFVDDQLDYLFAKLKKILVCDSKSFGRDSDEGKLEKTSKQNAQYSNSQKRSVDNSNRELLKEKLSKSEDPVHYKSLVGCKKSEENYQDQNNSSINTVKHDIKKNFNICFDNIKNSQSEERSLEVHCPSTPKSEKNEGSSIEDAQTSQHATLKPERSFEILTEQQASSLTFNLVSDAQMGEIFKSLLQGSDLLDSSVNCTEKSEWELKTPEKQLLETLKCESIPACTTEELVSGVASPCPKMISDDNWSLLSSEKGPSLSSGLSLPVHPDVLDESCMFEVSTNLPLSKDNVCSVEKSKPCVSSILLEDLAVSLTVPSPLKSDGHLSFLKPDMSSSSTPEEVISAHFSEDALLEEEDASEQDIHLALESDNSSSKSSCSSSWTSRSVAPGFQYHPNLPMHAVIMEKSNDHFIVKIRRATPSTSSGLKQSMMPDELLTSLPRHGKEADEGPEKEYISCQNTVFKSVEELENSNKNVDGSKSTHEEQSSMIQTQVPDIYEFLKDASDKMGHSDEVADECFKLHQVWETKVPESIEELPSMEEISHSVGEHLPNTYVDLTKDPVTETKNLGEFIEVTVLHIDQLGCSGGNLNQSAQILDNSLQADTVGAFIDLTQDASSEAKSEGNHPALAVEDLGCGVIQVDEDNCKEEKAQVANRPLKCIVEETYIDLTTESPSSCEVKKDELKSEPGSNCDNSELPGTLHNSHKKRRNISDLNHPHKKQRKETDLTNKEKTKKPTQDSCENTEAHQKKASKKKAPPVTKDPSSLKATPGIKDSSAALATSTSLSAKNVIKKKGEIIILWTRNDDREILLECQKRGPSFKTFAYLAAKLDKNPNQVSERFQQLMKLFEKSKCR
UniProt O00472: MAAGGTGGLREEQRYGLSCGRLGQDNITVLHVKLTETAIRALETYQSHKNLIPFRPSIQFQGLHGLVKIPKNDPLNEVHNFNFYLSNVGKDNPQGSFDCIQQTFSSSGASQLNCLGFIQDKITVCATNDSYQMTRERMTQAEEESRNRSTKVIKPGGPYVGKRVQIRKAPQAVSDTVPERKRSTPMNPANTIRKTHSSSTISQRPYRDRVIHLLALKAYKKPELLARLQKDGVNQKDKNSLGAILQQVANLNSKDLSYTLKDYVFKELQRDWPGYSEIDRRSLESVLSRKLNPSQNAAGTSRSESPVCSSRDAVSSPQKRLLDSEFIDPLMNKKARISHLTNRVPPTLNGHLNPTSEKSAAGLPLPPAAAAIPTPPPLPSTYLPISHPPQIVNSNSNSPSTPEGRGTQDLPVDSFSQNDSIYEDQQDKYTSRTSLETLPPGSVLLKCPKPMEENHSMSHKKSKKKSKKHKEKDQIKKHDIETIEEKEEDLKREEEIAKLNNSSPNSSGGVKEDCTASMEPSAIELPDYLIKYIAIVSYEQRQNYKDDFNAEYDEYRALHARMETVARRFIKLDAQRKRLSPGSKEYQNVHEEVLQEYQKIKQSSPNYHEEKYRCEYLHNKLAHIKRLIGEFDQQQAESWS
UniProt Q9NV88: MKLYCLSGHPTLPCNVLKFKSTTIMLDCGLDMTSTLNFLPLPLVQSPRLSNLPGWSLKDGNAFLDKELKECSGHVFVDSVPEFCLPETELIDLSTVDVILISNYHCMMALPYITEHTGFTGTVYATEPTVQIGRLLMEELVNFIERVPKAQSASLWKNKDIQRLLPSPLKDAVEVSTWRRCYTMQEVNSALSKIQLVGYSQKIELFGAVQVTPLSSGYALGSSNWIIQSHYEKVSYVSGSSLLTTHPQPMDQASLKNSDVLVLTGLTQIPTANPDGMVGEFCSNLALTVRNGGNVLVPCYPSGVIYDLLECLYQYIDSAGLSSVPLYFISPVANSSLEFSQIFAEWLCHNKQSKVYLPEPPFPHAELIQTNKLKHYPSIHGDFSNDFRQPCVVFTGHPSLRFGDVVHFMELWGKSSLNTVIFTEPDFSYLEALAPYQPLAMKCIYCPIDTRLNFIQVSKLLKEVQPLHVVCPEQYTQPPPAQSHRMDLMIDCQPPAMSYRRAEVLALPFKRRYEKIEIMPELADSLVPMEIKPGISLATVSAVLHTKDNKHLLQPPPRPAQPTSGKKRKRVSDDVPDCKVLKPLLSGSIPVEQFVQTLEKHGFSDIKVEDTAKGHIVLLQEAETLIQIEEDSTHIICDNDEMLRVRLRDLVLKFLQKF

B1: interactor of little elongation complex ELL subunit 2 (ICE2) (protein, UniProt Q659A1 1-982)
chain: MSSKMVISEPGLNWDISPKNGLKTFFSRENYKDHSMAPSLKELRVLSNRRIGENLNASASSVENEPAVSSATQAKEKVKTTIGMVLLPKPRVPYPRFSRFSQREQRSYVDLLVKYAKIPANSKAVGINKNDYLQYLDMKKHVNEEVTEFLKFLQNSAKKCAQDYNMLSDDARLFTEKILRACIEQVKKYSEFYTLHEVTSLMGFFPFRVEMGLKLEKTLLALGSVKYVKTVFPSMPIKLQLSKDDIATIETSEQTAEAMHYDISKDPNAEKLVSRYHPQIALTSQSLFTLLNNHGPTYKEQWEIPVCIQVIPVAGSKPVKVIYINSPLPQKKMTMRERNQIFHEVPLKFMMSKNTSVPVSAVFMDKPEEFISEMDMSCEVNECRKIESLENLYLDFDDDVTELETFGVTTTKVSKSPSPASTSTVPNMTDAPTAPKAGTTTVAPSAPDISANSRSLSQILMEQLQKEKQLVTGMDGGPEECKNKDDQGFESCEKVSNSDKPLIQDSDLKTSDALQLENSQEIETSNKNDMTIDILHADGERPNVLENLDNSKEKTVGSEAAKTEDTVLCSSDTDEECLIIDTECKNNSDGKTAVVGSNLSSRPASPNSSSGQASVGNQTNTACSPEESCVLKKPIKRVYKKFDPVGEILKMQDELLKPISRKVPELPLMNLENSKQPSVSEQLSGPSDSSSWPKSGWPSAFQKPKGRLPYELQDYVEDTSEYLAPQEGNFVYKLFSLQDLLLLVRCSVQRIETRPRSKKRKKIRRQFPVYVLPKVEYQACYGVEALTESELCRLWTESLLHSNSSFYVGHIDAFTSKLFLLEEITSEELKEKLSALKISNLFNILQHILKKLSSLQEGSYLLSHAAEDSSLLIYKASDGKVTRTAYNLYKTHCGLPGVPSSLSVPWVPLDPSLLLPYHIHHGRIPCTFPPKSLDTTTQQKIGGTRMPTRSHRNPVSMETKSSCLPAQQVETEGVAPHKRKIT
B2: arsenic resistance protein 2 (ARS2) (protein, UniProt Q9BXP5 1-876)
chain: MGDSDDEYDRRRRDKFRRERSDYDRSRERDERRRGDDWNDREWDRGRERRSRGEYRDYDRNRRERFSPPRHELSPPQKRMRRDWDEHSSDPYHSGYEMPYAGGGGGPTYGPPQPWGHPDVHIMQHHVLPIQARLGSIAEIDLGVPPPVMKTFKEFLLSLDDSVDETEAVKRYNDYKLDFRRQQMQDFFLAHKDEEWFRSKYHPDEVGKRRQEARGALQNRLRVFLSLMETGWFDNLLLDIDKADAIVKMLDAAVIKMEGGTENDLRILEQEEEEEQAGKPGEPSKKEEGRAGAGLGDGERKTNDKDEKKEDGKQAENDSSNDDKTKKSEGDGDKEEKKEDSEKEAKKSSKKRNRKHSGDDSFDEGSVSESESESESGQAEEEKEEAEEALKEKEKPKEEEWEKPKDAAGLECKPRPLHKTCSLFMRNIAPNISRAEIISLCKRYPGFMRVALSEPQPERRFFRRGWVTFDRSVNIKEICWNLQNIRLRECELSPGVNRDLTRRVRNINGITQHKQIVRNDIKLAAKLIHTLDDRTQLWASEPGTPPLPTSLPSQNPILKNITDYLIEEVSAEEEELLGSSGGAPPEEPPKEGNPAEINVERDEKLIKVLDKLLLYLRIVHSLDYYNTCEYPNEDEMPNRCGIIHVRGPMPPNRISHGEVLEWQKTFEEKLTPLLSVRESLSEEEAQKMGRKDPEQEVEKFVTSNTQELGKDKWLCPLSGKKFKGPEFVRKHIFNKHAEKIEEVKKEVAFFNNFLTDAKRPALPEIKPAQPPGPAQILPPGLTPGLPYPHQTPQGLMPYGQPRPPILGYGAGAVRPAVPTGGPPYPHAPYGAGRGNYDAFRGQGGYPGKPRNRMVRGDPRAIVEYRDLDAPDDVDFF
B3: nuclear protein co-activator of histone transcription (protein, UniProt Q14207 1-1427)
chain: MLLPSDVARLVLGYLQQENLISTCQTFILESSDLKEYAEHCTDEGFIPACLLSLFGKNLTTILNEYVAMKTKETSNNVPAIMSSLWKKLDHTLSQIRSMQSSPRFAGSQRARTRTGIAEIKRQRKLASQTAPASAELLTLPYLSGQFTTPPSTGTQVTRPSGQISDPSRSYFVVVNHSQSQDTVTTGEALNVIPGAQEKKAHASLMSPGRRKSESQRKSTTLSGPHSTIRNFQDPNAFAVEKQMVIENAREKILSNKSLQEKLAENINKFLTSDNNIAQVPKQTDNNPTEPETSIDEFLGLPSEIHMSEEAIQDILEQTESDPAFQALFDLFDYGKTKNNKNISQSISSQPMESNPSIVLADETNLAVKGSFETEESDGQSGQPAFCTSYQNDDPLNALKNSNNHDVLRQEDQENFSQISTSIQKKAFKTAVPTEQKCDIDITFESVPNLNDFNQRGNSNAECNPHCAELYTNQMSTETEMAIGIEKNSLSSNVPSESQLQPDQPDIPITSFVSLGCEANNENLILSGKSSQLLSQDTSLTGKPSKKSQFCENSNDTVKLKINFHGSKSSDSSEVHKSKIEINVLEPVMSQLSNCQDNSCLQSEILPVSVESSHLNVSGQVEIHLGDSLSSTKQPSNDSASVELNHTENEAQASKSENSQEPSSSVKEENTIFLSLGGNANCEKVALTPPEGTPVENSHSLPPESVCSSVGDSHPESQNTDDKPSSNNSAEIDASNIVSLKVIISDDPFVSSDTELTSAVSSINGENLPTIILSSPTKSPTKNAELVKCLSSEETVGAVVYAEVGDSASMEQSLLTFKSEDSAVNNTQNEDGIAFSANVTPCVSKDGGYIQLMPATSTAFGNSNNILIATCVTDPTALGTSVSQSNVVVLPGNSAPMTAQPLPPQLQTPPRSNSVFAVNQAVSPNFSQGSAIIIASPVQPVLQGMVGMIPVSVVGQNGNNFSTPPRQVLHMPLTAPVCNRSIPQFPVPPKSQKAQGLRNKPCIGKQVNNLVDSSGHSVGCHAQKTEVSDKSIATDLGKKSEETTVPFPEESIVPAAKPCHRRVLCFDSTTAPVANTQGPNHKMVSQNKERNAVSFPNLDSPNVSSTLKPPSNNAIKREKEKPPLPKILSKSESAISRHTTIRETQSEKKVSPTEIVLESFHKATANKENELCSDVERQKNPENSKLSIGQQNGGLRSEKSIASLQEMTKKQGTSSNNKNVLSVGTAVKDLKQEQTKSASSLITTEMLQDIQRHSSVSRLADSSDLPVPRTPGSGAGEKHKEEPIDIIKAPSSRRFSEDSSTSKVMVPPVTPDLPACSPASETGSENSVNMAAHTLMILSRAAISRTTSATPLKDNTQQFRASSRSTTKKRKIEELDERERNSRPSSKNLTNSSIPMKKKKIKKKKLPSSFPAGMDVDKFLLSLHYDE
B4: Symplekin (protein, UniProt Q92797 1-1274)
chain: MASGSGDSVTRRSVASQFFTQEEGPGIDGMTTSERVVDLLNQAALITNDSKITVLKQVQELIINKDPTLLDNFLDEIIAFQADKSIEVRKFVIGFIEEACKRDIELLLKLIANLNMLLRDENVNVVKKAILTMTQLYKVALQWMVKSRVISELQEACWDMVSAMAGDIILLLDSDNDGIRTHAIKFVEGLIVTLSPRMADSEIPRRQEHDISLDRIPRDHPYIQYNVLWEEGKAALEQLLKFMVHPAISSINLTTALGSLANIARQRPMFMSEVIQAYETLHANLPPTLAKSQVSSVRKNLKLHLLSVLKHPASLEFQAQITTLLVDLGTPQAEIARNMPSSKDTRKRPRDDSDSTLKKMKLEPNLGEDDEDKDLEPGPSGTSKASAQISGQSDTDITAEFLQPLLTPDNVANLVLISMVYLPEAMPASFQAIYTPVESAGTEAQIKHLARLMATQMTAAGLGPGVEQTKQCKEEPKEEKVVKTESVLIKRRLSAQGQAISVVGSLSSMSPLEEEAPQAKRRPEPIIPVTQPRLAGAGGRKKIFRLSDVLKPLTDAQVEAMKLGAVKRILRAEKAVACSGAAQVRIKILASLVTQFNSGLKAEVLSFILEDVRARLDLAFAWLYQEYNAYLAAGASGSLDKYEDCLIRLLSGLQEKPDQKDGIFTKVVLEAPLITESALEVVRKYCEDESRTYLGMSTLRDLIFKRPSRQFQYLHVLLDLSSHEKDKVRSQALLFIKRMYEKEQLREYVEKFALNYLQLLVHPNPPSVLFGADKDTEVAAPWTEETVKQCLYLYLALLPQNHKLIHELAAVYTEAIADIKRTVLRVIEQPIRGMGMNSPELLLLVENCPKGAETLVTRCLHSLTDKVPPSPELVKRVRDLYHKRLPDVRFLIPVLNGLEKKEVIQALPKLIKLNPIVVKEVFNRLLGTQHGEGNSALSPLNPGELLIALHNIDSVKCDMKSIIKATNLCFAERNVYTSEVLAVVMQQLMEQSPLPMLLMRTVIQSLTMYPRLGGFVMNILSRLIMKQVWKYPKVWEGFIKCCQRTKPQSFQVILQLPPQQLGAVFDKCPELREPLLAHVRSFTPHQQAHIPNSIMTILEASGKQEPEAKEAPAGPLEEDDLEPLTLAPAPAPRPPQDLIGLRLAQEKALKRQLEEEQKLKPGGVGAPSSSSPSPSPSARPGPPPSEEAMDFREEGPECETPGIFISMDDDSGLTEAALLDSSLEGPLPKETAAGGLTLKEERSPQTLAPVGEDAMKTPSPAAEDAREPEAKGNS
B5: eleven-nineteen lysine-rich leukemia protein (ELL) (protein, UniProt P55199 1-621)
chain: MAALKEDRSYGLSCGRVSDGSKVSVFHVKLTDSALRAFESYRARQDSVSLRPSIRFQGSQGHISIPQPDCPAEARTFSFYLSNIGRDNPQGSFDCIQQYVSSHGEVHLDCLGSIQDKITVCATDDSYQKARQSMAQAEEETRSRSAIVIKAGGRYLGKKVQFRKPAPGATDAVPSRKRATPINLASAIRKSGASAVSGGSGVSQRPFRDRVLHLLALRPYRKAELLLRLQKDGLTQADKDALDGLLQQVANMSAKDGTCTLQDCMYKDVQKDWPGYSEGDQQLLKRVLVRKLCQPQSTGSLLGDPAASSPPGERGRSASPPQKRLQPPDFIDPLANKKPRISHFTQRAQPAVNGKLGVPNGREALLPTPGPPASTDTLSSSTHLPPRLEPPRAHDPLADVSNDLGHSGRDCEHGEAAAPAPTVRLGLPLLTDCAQPSRPHGSPSRSKPKKKSKKHKDKERAAEDKPRAQLPDCAPATHATPGAPADTPGLNGTCSVSSVPTSTSETPDYLLKYAAISSSEQRQSYKNDFNAEYSEYRDLHARIERITRRFTQLDAQLRQLSQGSEEYETTRGQILQEYRKIKKTNTNYSQEKHRCEYLHSKLAHIKRLIAEYDQRQLQAWP

These are yes or no findings as the source states them, for the method shown. Binding seen in cells or lysates may run through a third protein. Here binding means that the protein was enriched with, or labelled near, the bait; the list need not be complete. For part of these data: Tags and fused reporters may be left off the sequences shown.

One assay addresses FLAG-tagged ICE1 (interactor of little elongation complex ELL subunit 1) (UniProt Q9Y2F5). Put plainly: affinity purification with mass spectrometry; anti-FLAG agarose purification from nuclear extracts (prepared with Benzonase) of 293FRT cells stably expressing FLAG-ICE1, washes with 0.15 M NaCl, 0.1% Triton X-100, elution with FLAG peptide; MudPIT and gel-based mass spectrometry; parental cells as control.
Regarding B1, the binding entry is listed as “binds”.
Take B2: the binding entry is “binds”.
Take B3: the binding entry was “binds”.
For the molecule B4, the binding entry is reported as “binds”.
Still for that read-out and setting: then B5, with “binds”.

For a further assay the target is unchanged. Described as above. This is another data set of the same source.
For “ELL-associated factor 1 (EAF1) (from UniProt Q96JC9 1-268)”, the binding result is recorded as “binds”.
INTS4 (from UniProt Q96HW7 1-963): the binding entry is reported as “binds”.
Regarding “cap-binding protein 80 (CBP80) (from UniProt Q09161 1-790)”, the binding result is reported as “binds”.
Regarding INTS6 (from UniProt Q9UL03 1-887), the binding entry is “binds”.
In the case of INTS7 (from UniProt Q9NVH2 1-962), the binding entry is listed as “binds”.
Same read-out and setting: next, “FLICE-associated huge protein (FLASH) (from UniProt Q9UKL3 1-1982)”: “binds”.
As for ELL2 (from UniProt O00472 1-640), the binding entry is listed as “binds”.
INTS9 (from UniProt Q9NV88 1-658): the binding result was “binds”.
Still for that read-out and setting: next, coilin (from UniProt P38432 1-576): “binds”; “ELL-associated factor 2 (EAF2) (from UniProt Q96CJ1 1-260)”: “binds”.
